9 substances from PMC10979747 (Journal of the American Chemical Society, 2024) can be followed below.

HELM strings list residues between dots; [ac] is acetyl, [am] amide, other brackets name non-standard units.

The nature of the series: general procedure: Fmoc solid-phase peptide synthesis; 2-Cl-Trt resin; HATU, HOAt, DIPEA (in-solution macrocyclization). The note with it: whole synthesis; for final HPLC purity: UPLC λ = 280 nm; for isolated yield: overall, based on the resin loading.

Regarding “PEPTIDE1{[DhaThzPyrThzOMe].W.A.[MeGly].[MeNph].[Dhb].N.[TicOH].[hGln].[Dha].[Dhb].[Dha].[ValThz]}$PEPTIDE1,PEPTIDE1,1:R1-13:R2$$$V2.0”, the “final HPLC purity” value was determined as 95% and the isolated yield was 3%.
The corresponding values for “PEPTIDE1{[DhaThzPyrThzOMe].W.A.[hGln].R.L.N.[MeNph].L.R.[TicOH].[Dha].G}$PEPTIDE1,PEPTIDE1,1:R1-13:R2$$$V2.0” are 96% and 4%.
“PEPTIDE1{[DhaThzPyrThzOMe].W.T.N.S.[MeNph].[TicOH].N.[MeNph].[MeGly].[MeGly].[MeGly].T.P}$PEPTIDE1,PEPTIDE1,1:R1-14:R2$$$V2.0”: the “final HPLC purity” value is 93% and the isolated yield is recorded as 3%.
The corresponding values for “PEPTIDE1{[DhaThzPyrThzOMe].W.T.[TicOH].P.R.L.[MeAla].[MeGly].R.R.S.N.L}$PEPTIDE1,PEPTIDE1,1:R1-14:R2$$$V2.0” are 98% and 3%.
The matching figures for “PEPTIDE1{[DhaThzPyrThzOMe].W.W.L.P.[TicOH].[Dha].[Dhb].[MeGly].[Dha].[Dhb].[DhbThz]}$PEPTIDE1,PEPTIDE1,1:R1-12:R2$$$V2.0”: 96% and 2%.
The matching figures for “PEPTIDE1{[DhaThzPyrThzOMe].W.W.L.R.[Dhb].[MeGly].R.[MeAla].[Dha].T.[MeNph].[Dhb].G}$PEPTIDE1,PEPTIDE1,1:R1-14:R2$$$V2.0”: 95% and 5%.
In the case of “PEPTIDE1{[DhaThzPyrThzOMe].W.W.[SerThz].N.[MeGly].[Dha].[Dha].[MeGly].[MeNph].[TicOH].[Dhb].A}$PEPTIDE1,PEPTIDE1,1:R1-13:R2$$$V2.0”, the “final HPLC purity” value is listed as 96% and the isolated yield is recorded as 5%.
As to “PEPTIDE1{[DhaThzPyrThzOMe].W.W.[hGln].[MeGly].[Dha].[MeGly].[TicOH].[Dha].[Dha].T.[MeNph].[Dha].G}$PEPTIDE1,PEPTIDE1,1:R1-14:R2$$$V2.0”, the “final HPLC purity” value came to 98% and the isolated yield was 5%.
For the substance “PEPTIDE1{[DhaThzPyrThzOMe].W.W.[hGln].[MeGly].[Dhb].[MeGly].[TicOH].[Dha].[Dha].T.[MeNph].[Dhb].G}$PEPTIDE1,PEPTIDE1,1:R1-14:R2$$$V2.0”, the “final HPLC purity” value amounted to 94% and the isolated yield amounted to 6%.
